Experimental data: PubChem BioAssay AID504444 (National Center for Advancing Translational Sciences (NCATS), 2011)
In all, about 360,000 compounds went through this assay and about 7,500 (2.1%) were called active. Inconclusive means that the source gave no clear call. Such entries were picked first, then a sample of the others. The call rests on the fitted dose curve; in most records, active means well fitted inhibition curve with a large enough effect; inconclusive means small, poorly fitted or top-dose-only effect, or effect the other way; inactive means flat fitted curve, though single readings scatter. A potency beside an inconclusive call is a rough fit, not a confirmed value.
Potency means the concentration at half of the fitted maximal effect.

Test: Nrf2 qHTS screen for inhibitors; further: nearly all actives have a fitted effect of over 60% in size
Settings: A549 ARE-Fluc reporter, luciferase luminescence, 18-24 h; series mostly up to 46 µM
In short: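 A549 ARE_Fluc cells (5000/well, 5% FBS OPTI-MEM) pre-incubated 2 h, then treated with compounds 18-24 h at 37C/5% CO2 in concentration-response. CellTiter-Fluor viability read first; BugLite luciferase luminescence after 15 min at room temperature gives Nrf2 activity.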
For `CC(=O)c1ccc(NS(=O)(=O)c2ccc3c(c2)N(C)CCO3)cc1`, the Potency was inconclusive: 20.6 µM [falling, partial curve].
For `COc1ccc(CC(=O)N/N=C/c2cccn2-c2ccc([N+](=O)[O-])cc2)cc1OC`, the Potency was inconclusive: 25.9 µM [falling, single point].
With `CC(C)(C)n1ncc2c(=O)n(CC(=O)c3ccccc3)cnc21` the Potency was inconclusive: 2.06 µM [activator, full curve].
In the case of `COc1ccc(Cl)cc1NC(=O)C1CC(=O)N(c2ccc(F)cc2)C1` (stereo not drawn), the Potency is reported as inconclusive: 0.82 µM [falling, full curve, poor fit].
For `O=C(COc1coc(CN2CCN(c3cccc(Cl)c3)CC2)cc1=O)NC1CCCC1`, the Potency was inconclusive: 18.4 µM [falling, single point].
With `CCN(CC)S(=O)(=O)c1ccc(NC=C(C#N)C#N)cc1` the Potency was “inactive”.
In the case of `Cc1ccc(Cl)cc1N1CCN(S(=O)(=O)c2ccc3c(c2)oc(=O)n3C)CC1`, the Potency is reported as inconclusive: 5.8 µM [falling, partial curve].
In the case of `CC1(C)CC2CC(C)(CN2S(=O)(=O)c2ccccc2[N+](=O)[O-])C1` (stereo not drawn), the Potency is reported as inconclusive: 29.1 µM [falling, single point].
For `COc1ccc(CNc2ncc(-c3ccccc3)n2C)c2ccccc12`, the Potency was inconclusive: 29.1 µM [falling, single point].
For `COc1ccccc1C(=O)NCCn1cc(SCC(=O)Nc2ccccc2F)c2ccccc21`, the Potency was active: 23.1 µM.
For `COC(=O)c1ccc(-c2ccc(F)cc2)nc1C`, the Potency was inconclusive: 5.8 µM [activator, partial curve].
In the case of `CN(Cc1nc2ccccc2c(=O)[nH]1)C(=O)c1ccccc1OCc1ccc(Cl)cc1`, the Potency is reported as inconclusive: 29.1 µM [falling, single point].
With `Cc1cccc(NC(=O)C(C)C(=O)c2ccccc2)c1` (stereo not drawn) the Potency was “inactive”.
With `O=C(NC1CCCCC1)N(CCN1CCCC1)Cc1cc2cc3c(cc2[nH]c1=O)OCCO3` the Potency was “inactive”.
For `CC(C)(C)c1ccc(/C=C/C(=O)c2ccc(NC3=NCCCS3)cc2)cc1`, the Potency was inconclusive: 16.4 µM [falling, single point].
In the case of `COc1ccc(S(=O)(=O)N2CCC(C(=O)Nc3cccc(Cl)c3)CC2)cc1OC`, the Potency is reported as inconclusive: 29.1 µM [falling, single point].
With `Cc1ccc(NCSc2ccc(Cl)cc2)cc1` the Potency was inconclusive: 18.4 µM [activator, partial curve].
In the case of `O=C(Cn1cnc([N+](=O)[O-])n1)NCCO`, the Potency is reported as inconclusive: 7.31 µM [activator, partial curve, poor fit].
